Results are given in words; binding and its absence hold for the method and conditions named. Binding seen in cells or lysates may run through a third protein. Binding can be weak; no strength is given.
Biological target: T1, ABA RESPONSIVE ELEMENT BINDING FACTOR 1 (OsABF1) (rice (Oryza sativa)) (UniProt Q0JHF1)
T1 sequence: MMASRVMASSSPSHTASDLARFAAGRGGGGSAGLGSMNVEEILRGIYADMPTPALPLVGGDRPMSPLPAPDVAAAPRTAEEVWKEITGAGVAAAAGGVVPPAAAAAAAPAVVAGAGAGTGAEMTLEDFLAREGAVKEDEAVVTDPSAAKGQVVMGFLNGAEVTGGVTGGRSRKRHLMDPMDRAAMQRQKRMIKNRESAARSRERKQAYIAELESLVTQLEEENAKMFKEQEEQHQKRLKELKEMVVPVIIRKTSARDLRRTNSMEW
Test: split reporter; BiFC; pSPYNE (R) and pSPYCE (MR) constructs co-transformed into Arabidopsis mesophyll protoplasts, incubated overnight, confocal microscopy

## Hd3a BINDING REPRESSOR FACTOR 1 (HBF1) (rice (Oryza sativa))
  binding: binds
